{"sequences": {"note": "Chains of the proteins cited; added tags and fusions are not shown. Lines headed by an entry give the natural chain unless they say otherwise; changes in a name come on top.", "UniProt P18054": "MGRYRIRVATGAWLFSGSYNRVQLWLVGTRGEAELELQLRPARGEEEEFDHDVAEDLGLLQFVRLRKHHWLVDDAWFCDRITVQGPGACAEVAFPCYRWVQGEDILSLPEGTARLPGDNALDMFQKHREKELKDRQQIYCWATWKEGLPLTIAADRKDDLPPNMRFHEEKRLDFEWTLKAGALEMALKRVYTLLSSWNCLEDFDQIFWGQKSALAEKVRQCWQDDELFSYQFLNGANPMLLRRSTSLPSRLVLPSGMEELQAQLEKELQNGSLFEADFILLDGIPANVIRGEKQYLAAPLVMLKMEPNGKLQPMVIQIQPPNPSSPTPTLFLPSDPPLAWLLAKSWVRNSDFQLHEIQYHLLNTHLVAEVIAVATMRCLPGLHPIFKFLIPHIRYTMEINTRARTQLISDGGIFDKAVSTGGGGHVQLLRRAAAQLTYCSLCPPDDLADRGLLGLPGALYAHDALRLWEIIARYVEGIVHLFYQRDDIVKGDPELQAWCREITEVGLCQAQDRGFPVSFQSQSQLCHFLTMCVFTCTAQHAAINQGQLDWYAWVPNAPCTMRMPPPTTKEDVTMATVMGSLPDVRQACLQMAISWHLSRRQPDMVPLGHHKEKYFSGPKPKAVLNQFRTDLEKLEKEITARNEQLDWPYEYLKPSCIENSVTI"}, "source": "PubChem BioAssay AID1671190", "about": "(National Center for Advancing Translational Sciences (NCATS), 2021)", "note": "Hit rate of the full screen: of about 580,000 compounds, about 6,100 (1.1%) were called active. The shares of active, inactive and inconclusive entries below differ from those in the screen. Calls follow the shape of the dose curve; as a rule, active = well fitted inhibition curve with a large enough effect; inconclusive = small, poorly fitted or top-dose-only effect, or another doubt; inactive = no such curve, though single readings can be large or run the other way. Where the call is inconclusive, the potency comes from a doubtful curve fit. % is scaled to controls: 0 for no effect and ±100 for the full control effect; potency is read from the fitted curve at half-maximal effect.", "data": [{"biological_target": "Polyunsaturated fatty acid lipoxygenase ALOX12 (Homo sapiens) (UniProt P18054)", "assay": "Primary qHTS assay for inhibitors of human arachidonate 12S-lipoxygenase (ALOX12): Round 2", "settings": "purified 12hLO, xylenol orange hydroperoxide absorbance; activity change, negative = inhibition: at 108 µM (top of the series) unless noted", "outline": "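Purified human 12hLO (150 nM final) in 25 mM Hepes, 0.01% Triton X-100, pH 7.0 was preincubated 15 min at room temperature with compound. Then 40 uM arachidonic acid was added, 30 min. Hydroperoxide was read by Fe-XO absorbance ratio 573/405 nm.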", "values": [{"smiles": "CCOc1ccccc1/C=N/O", "Potency": "inconclusive: 126 µM [inhibitor, single point]"}, {"smiles": "COc1ccc(-c2nc3c(c(=O)[nH]c(=O)n3Cc3ccccc3)n2C)cc1", "activity change, negative = inhibition": "inactive: 363%"}, {"smiles": "COc1ccc(-c2csc(NC(=O)Cc3ccccc3)n2)cc1OC", "activity change, negative = inhibition": "inactive: 0.0775%"}, {"smiles": "CC1CCc2nc3ncn(CC(=O)Nc4cccc(C#N)c4)c(=O)c3cc2C1", "note": "(configuration not stated)", "Potency": "inconclusive: 56.2 µM [inhibitor, partial curve, poor fit]"}, {"smiles": "Cc1cc(C)c2[nH]c(=O)c(C(c3nnnn3CC3CCCO3)N3CCC(C)CC3)cc2c1", "note": "(configuration not stated)", "Potency": "inconclusive: 17.8 µM [inhibitor, full curve]"}, {"smiles": "Cc1ccsc1/C=N/N=C1c2ccccc2-c2ccccc21", "Potency": "inconclusive: 7.94 µM [inhibitor, partial curve, poor fit]"}, {"smiles": "COc1ccccc1-c1nn(CCC(=O)Nc2cccc(C(C)=O)c2)c2nc(C)cc(C)c12", "Potency": "inconclusive: 50.1 µM [inhibitor, partial curve, poor fit]"}, {"smiles": "CC(C)(C)CNc1ccc(C(=O)N2CCC(CN3CCCC3=O)CC2)cn1", "Potency": "inconclusive: 0.631 µM [inhibitor, single point]"}, {"smiles": "CCC1CCC(C(=O)Nc2ccc(Br)cc2)CC1", "note": "(configuration not stated)", "activity change, negative = inhibition": "inactive: -18.8%"}, {"smiles": "Cc1nccn1-c1ccccc1Cn1cc(-c2cncnc2)nn1", "Potency": "inconclusive: 35.5 µM [inhibitor, partial curve, poor fit]"}, {"smiles": "CCc1cc(=O)oc2c(C)c(O[C@@H]3O[C@H](CO)[C@@H](O)[C@H](O)[C@H]3O)ccc12", "activity change, negative = inhibition": "inactive: -4.99%"}, {"smiles": "COc1cc(OC)cc(C(=O)NNC(=S)NCc2ccco2)c1", "activity change, negative = inhibition": "inactive: 0.189%"}, {"smiles": "CCCNC(=O)N1CCC2(CC1)CN(C(=O)c1ccccc1)[C@H](CO)c1[nH]c3cc(OC)ccc3c12", "Potency": "inconclusive: 39.8 µM [inhibitor, partial curve, poor fit]"}, {"smiles": "CCN(c1ccc(NS(=O)(=O)c2ccc(C)c(C)c2)cc1)C(C)C", "Potency": "inconclusive: 22.4 µM [inhibitor, partial curve, poor fit]"}, {"smiles": "O=C(O)c1cc(C(=O)C2CC2)c[nH]1", "Potency": "inconclusive: 50.1 µM [inhibitor, partial curve, poor fit]"}, {"smiles": "CN(CC(=O)Nc1ccc(N2CCOCC2)cc1)C(=O)c1cc(F)c(F)cc1Cl", "activity change, negative = inhibition": "inactive: -19.5%"}, {"smiles": "COC(=O)c1ccc(C2C(C(=O)c3ccco3)=C(O)C(=O)N2c2cc(C)on2)cc1", "note": "(configuration not stated)", "Potency": "inconclusive: 35.5 µM [inhibitor, partial curve, poor fit]"}, {"smiles": "Nc1ccc(-c2cc(C(=O)O)c3ccccc3n2)cc1", "Potency": "active: 17.8 µM"}, {"smiles": "CSc1nnc(-c2cc[n+](C)cc2)n1CCO", "Potency": "inconclusive: 25.1 µM [inhibitor, partial curve, poor fit]"}, {"smiles": "COC(=O)CN(c1ccc(C)c(Cl)c1)S(C)(=O)=O", "Potency": "inconclusive: 44.7 µM [inhibitor, partial curve, poor fit]"}, {"smiles": "CCc1ccccc1N(CC(=O)N1CCN(c2ccc(F)cc2)CC1)S(C)(=O)=O", "Potency": "inconclusive: 12.6 µM [inhibitor, full curve, poor fit]"}, {"smiles": "NNc1cc(Cl)ccc1[N+](=O)[O-]", "Potency": "inconclusive: 5.62 µM [inhibitor, partial curve, poor fit]"}, {"smiles": "CC1(C(=O)Nc2ccc3nc[nH]c3c2)CCN1C(=O)c1ccccc1CCc1ccccc1", "note": "(configuration not stated)", "activity change, negative = inhibition": "inactive: -4.16%"}, {"smiles": "O=C(NC1CC1)C1=C[C@@H](c2c[nH]c3ccccc23)C[C@@H](OCc2ccc(CO)cc2)O1", "Potency": "inconclusive: 35.5 µM [inhibitor, partial curve, poor fit]"}, {"smiles": "C[C@@H]1CCC(=O)N(CC[C@H](Oc2ccccc2)c2ccccc2)CC1", "activity change, negative = inhibition": "inactive: -4.39%"}, {"smiles": "CC(C)C[C@H]1CN([C@@H](Cc2ccc(O)cc2)CN2CCC[C@@H]2CN2C(=S)NC[C@@H]2Cc2ccccc2)C(=S)N1CCc1ccccc1", "Potency": "inconclusive: 35.5 µM [inhibitor, partial curve]"}, {"smiles": "Cc1cccc(-n2ncc(C(=O)N3CCC(C)CC3)c2C2CCN(C(=O)OC(C)(C)C)CC2)c1", "Potency": "inconclusive: 39.8 µM [inhibitor, partial curve, poor fit]"}, {"smiles": "O=C(NCc1ccc(Cl)c(Cl)c1)c1cc(C2CCCCN2C(=O)C2CCCCC2)on1", "note": "(configuration not stated)", "Potency": "inconclusive: 100 µM [inhibitor, single point]"}, {"smiles": "CCc1ccc(NC(=O)CC2C(=O)N(c3cccc(OC)c3)C(=O)N2CCOC)cc1", "note": "(configuration not stated)", "Potency": "inconclusive: 89.1 µM [inhibitor, single point]"}, {"smiles": "O=C1C(Sc2cccc(F)c2)=C[C@@]2(O)CC[C@@H](O)[C@]1(Sc1cccc(F)c1)[C@H]2O", "Potency": "inconclusive: 39.8 µM [inhibitor, partial curve, poor fit]"}, {"smiles": "Cc1nccc(-c2ccccc2)c1C(=O)N1CCN(C)C(C(=O)O)C1", "note": "(configuration not stated)", "Potency": "inconclusive: 3.55 µM [inhibitor, full curve]"}, {"smiles": "Cc1ccc(N2C(=O)CSC23C(=O)Nc2ccccc23)cc1Br", "note": "(configuration not stated)", "activity change, negative = inhibition": "inactive: 2.85%"}, {"smiles": "CCCn1c(C)cnc1C1CCN(S(=O)(=O)c2cc(OC)ccc2OC)C1", "note": "(configuration not stated)", "activity change, negative = inhibition": "inactive: 32.6%"}, {"smiles": "CCN(CC)CCNc1nc(SC)nc2sc3c(c12)CCN(C)C3", "activity change, negative = inhibition": "inactive: -8.51%"}, {"smiles": "O=C(O)c1cccc(NC(=S)NC(=O)C(c2ccccc2)c2ccccc2)c1", "Potency": "active: 28.2 µM"}, {"smiles": "Cc1ccc2cccc(NC(=O)c3ccc(C)c(C)c3)c2n1", "Potency": "inconclusive: 100 µM [inhibitor, partial curve, poor fit]"}, {"smiles": "O=C1C=CC(=O)c2c(O)c(CO)c(CO)c(O)c21", "Potency": "inconclusive: 15.8 µM [inhibitor, full curve]"}, {"smiles": "Cc1ccccc1OCC(=O)NNC(=O)CSc1nc(N)cc(N)n1", "activity change, negative = inhibition": "inactive: -11.7%"}, {"smiles": "COc1ccccc1NC(=O)Nc1nc(CC(=O)N2CCN(c3ccccc3)CC2)cs1", "Potency": "inconclusive: 89.1 µM [inhibitor, single point]"}, {"smiles": "O=[N+]([O-])c1cc2c(cc1/C=N/NS(=O)(=O)c1ccc(Br)cc1)OCO2", "Potency": "inconclusive: 39.8 µM [inhibitor, partial curve, poor fit]"}, {"smiles": "CCCCn1c(CNC(=O)c2ccc(OC)cc2)nnc1SCC(=O)Nc1ccccc1", "activity change, negative = inhibition": "inconclusive: -32.8% [inhibitor]"}, {"smiles": "O=C(Nc1ccc(C(=O)O)cc1)/C(=C\\c1ccco1)NC(=O)c1ccccc1", "activity change, negative = inhibition": "inactive: 0%"}]}]}
